PubChem BioAssay AID504791 – Drosophila RNAi Screening Center – 2011

Test: 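Genes of the fly required for silencing by miRNA, siRNA or endo-siRNA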 (primary screen)
Cells: Drosophila S2-derived reporter cells
Reagent: long dsRNA against Drosophila genes, about 150-250 ng dsRNA per well (siRNA assay); about 80-120 ng (miRNA assay)
Duration: about 5 days (siRNA assay); about 4 days (miRNA assay)
Treatment: copper sulfate induction of reporters: 25 µM (siRNA assay); 200 mM stated (miRNA assay), 1-2 days before reading
Read-out: 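Per-well ratio of Renilla over firefly light, expressed relative to that plate's average ratio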
Call rule: 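a well was a first-pass pick when its plate-scaled ratio rose above 1.5 (siRNA assay) or 1.6 (miRNA assay), or dropped below 0.6; a gene counted only if two separate dsRNAs agreed on retest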
In all, the deposit lists about 23,000 reagents; this is a random part of those with a known target gene and a result. In the full data, 199 (0.86%) were called active. 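Plate-scaled ratios behind the calls are not deposited; printed light signals are raw; many rows marked increased or decreased are still called inactive.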 A number with no mark means an inactive call. Reagents against one gene are numbered here. Names joined by + are all predicted targets of the reagent. The record does not give: the direction of the score.

| gene | reagent no. | stable siRNA reporter change | miRNA reporter change | stable assay Renilla, run 1 (luminescence) | stable assay firefly, run 1 (luminescence) |
| --- | --- | --- | --- | --- | --- |
| CG5068 | 1 | – | – | 7899 | 4.95e5 |
| Scgbeta (Sarcoglycan beta) | 1 | – | – | 6800 | 4.46e5 |
| Spt (Spitting Image) | 1 | – | – | 7226 | 5.63e5 |
| CG1105 | 1 | – | – | 8135 | 3.71e5 |
| Cpr11A (Cuticular protein 11A) | 1 | – | – | 5379 | 5.30e5 |
| CG8584 | 1 | – | – | 6607 | 3.26e5 |
| wkd (whacked) | 1 | – | – | 6174 | 3.17e5 |
| rogdi | 1 | – | – | 8386 | 3.70e5 |
| CG3092 | 1 | – | – | 47705 | 8.20e5 |
| Ih (I[[h]] channel) | 1 | – | – | 7947 | 3.78e5 |
| Kap3 (Kinesin associated protein 3) | 1 | – | – | 7086 | 4.29e5 |
| CheB38c (Chemosensory protein B 38c) | 1 | – | – | 6710 | 4.78e5 |
| CG32148 | 1 | – | – | 5423 | 3.67e5 |
| CG15740 | 1 | – | – | 4231 | 2.69e5 |
| CG15740 | 2 | – | – | 5794 | 4.36e5 |
| hbt (headbutt) | 1 | – | – | 6595 | 3.76e5 |
| hbt (headbutt) | 2 | – | – | 2839 | 2.24e5 |
| pre-mod(mdg4)-W + pre-mod(mdg4)-Y + mod(mdg4) + 3 more | 1 | – | – | 8247 | 4.88e5 |
| mRpL30 (mitochondrial ribosomal protein L30) | 1 | – | – | 5132 | 3.02e5 |
| Sans (Scaffold protein containing ankyrin repeats and SAM domain) | 1 | reporter ratio lowered past the hit cutoff | – | 4443 | 4.94e5 |
| Targ2 (Terminal ADP-ribose protein glycohydrolase 2) | 1 | – | – | 9010 | 6.97e5 |
| Or94b (Odorant receptor 94b) | 1 | – | – | 6999 | 3.47e5 |
| PHDP (Putative homeodomain protein) | 1 | – | – | 5348 | 3.04e5 |
| Septin4 (Septin 4) | 1 | – | – | 7656 | 5.35e5 |
| CCHa1-R (CCHamide-1 receptor) | 1 | – | – | 5514 | 2.88e5 |
| CCHa1-R (CCHamide-1 receptor) | 2 | – | – | 5818 | 2.94e5 |
| ath (athos) | 1 | – | – | 7906 | 4.35e5 |
| erm (earmuff) | 1 | – | – | 13594 | 7.45e5 |
| CG5089 | 1 | – | – | 11312 | 4.42e5 |
| Cib2 (Calcium and integrin binding family member 2) | 1 | – | – | 7866 | 5.38e5 |
| CG34012 | 1 | – | – | 5938 | 3.73e5 |
| CG4942 | 1 | – | – | 8744 | 5.47e5 |
| Vha100-4 (Vacuolar H[+] ATPase 100kD subunit 4) | 1 | – | – | 6471 | 2.79e5 |
| CG18609 | 1 | – | – | 6011 | 3.16e5 |
| CG32625 | 1 | – | – | 4687 | 3.46e5 |
| CG15712 | 1 | – | – | 6219 | 3.19e5 |
| CG14095 | 1 | – | – | 6939 | 3.80e5 |
| Cyp4ad1 (Cytochrome P450 4ad1) | 1 | – | – | 8597 | 3.63e5 |
| S-Lap8 (Sperm-Leucylaminopeptidase 8) | 1 | – | – | 4815 | 3.44e5 |
| S-Lap8 (Sperm-Leucylaminopeptidase 8) | 2 | – | – | 9293 | 4.68e5 |
| Ance (Angiotensin converting enzyme) | 1 | – | – | 14280 | 9.66e5 |
| CG42615 | 1 | – | – | 4563 | 4.94e5 |
| Pu (Punch) | 1 | – | – | 3.92e5 | 2.96e5 |
| Ugt35E1 (UDP-glycosyltransferase family 35 member E1) | 1 | – | – | 5262 | 3.82e5 |
| CG3748 | 1 | – | – | 9045 | 5.44e5 |
| robl62A | 1 | – | – | 7156 | 4.20e5 |
| CG9864 | 1 | – | – | 5914 | 2.81e5 |
| CG7443 | 1 | – | – | 6507 | 5.02e5 |
| CG1428 | 1 | – | – | 6666 | 3.84e5 |
| CG8774 | 1 | – | – | 7652 | 5.08e5 |
| Nup107 (Nucleoporin 107kD) | 1 | – | – | 10957 | 4.07e5 |
| CG14125 | 1 | – | – | 6583 | 3.53e5 |
| SNCF (SoxNeuro Co-Factor) | 1 | – | – | 4575 | 3.01e5 |
| CG32811 | 1 | – | – | 3619 | 3.09e5 |
| CG42694 | 1 | – | – | 4691 | 2.42e5 |

An excerpt from above, limited to “stable assay firefly, run 1 (luminescence)”:
Pu (Punch): 2.96e5
Ugt35E1 (UDP-glycosyltransferase family 35 member E1): 3.82e5
CG3748: 5.44e5
robl62A: 4.20e5
CG9864: 2.81e5
CG7443: 5.02e5
CG1428: 3.84e5
CG8774: 5.08e5
Nup107 (Nucleoporin 107kD): 4.07e5
CG14125: 3.53e5

Next entries follow.
| gene | reagent no. | stable siRNA reporter change | miRNA reporter change | stable assay Renilla, run 1 (luminescence) | stable assay firefly, run 1 (luminescence) |
| --- | --- | --- | --- | --- | --- |
| alpha4GT1 (alpha1,4-galactosyltransferase 1) | 1 | – | – | 16387 | 3.60e5 |
| Su(var)2-10 (Suppressor of variegation 2-10) | 1 | reporter ratio lowered past the hit cutoff | – | 7138 | 9.18e5 |
| Su(var)2-10 (Suppressor of variegation 2-10) | 2 | – | reporter ratio lowered past the hit cutoff | – | – |
| lgs (legless) | 1 | – | – | 7931 | 4.59e5 |
| CG15201 | 1 | – | – | 4675 | 3.86e5 |
| CG4452 | 1 | – | – | 7035 | 3.30e5 |
| CG32686 | 1 | – | – | 5724 | 4.13e5 |
| PolE2 (DNA polymerase epsilon subunit 2) | 1 | – | – | 6895 | 5.20e5 |
| Alp13 (Alkaline phosphatase 13) | 1 | – | – | 6300 | 4.16e5 |
| Skadu | 1 | – | – | 5523 | 4.31e5 |
| Mpcp2 | 1 | – | – | 5652 | 3.51e5 |
| CG14853 | 1 | – | – | 3671 | 3.74e5 |
| CG14853 | 2 | – | – | 7520 | 4.23e5 |
| Ns4 (Nucleostemin 4) | 1 | – | – | 16843 | 6.04e5 |
| CG11396 | 1 | – | – | 8612 | 5.81e5 |
| CG8399 | 1 | – | – | 12107 | 4.31e5 |
| iav (inactive) | 1 | – | – | 6354 | 3.09e5 |
| Slbp (Stem-loop binding protein) | 1 | – | – | 5916 | 4.08e5 |
| CG3638 | 1 | – | – | 6422 | 3.49e5 |
| XRCC1 | 1 | – | – | 7883 | 5.17e5 |
| Fign (Fidgetin) | 1 | – | – | 25405 | 5.83e5 |
| CG9948 | 1 | – | – | 7467 | 4.38e5 |
| GNBP-like3 (GNBP-like 3) | 1 | – | – | 7148 | 3.98e5 |
| Caf1-180 (Chromatin assembly factor 1, p180 subunit) | 1 | – | – | 7132 | 5.24e5 |
| SCCRO (Squamous cell carcinoma-related oncogene) | 1 | – | – | 6766 | 4.43e5 |
| dsd (distracted) | 1 | – | – | 6407 | 5.52e5 |
| dsd (distracted) | 2 | – | – | 8255 | 4.21e5 |
| gsb (gooseberry) | 1 | – | – | 6511 | 4.54e5 |
